Measurements published in publication PMC12518634, “The noncanonical function of liver-type phosphofructokinase potentiates the efficacy of HDAC inhibitors in cancer” (Signal Transduction and Targeted Therapy, 2025).
These are yes or no findings as the source states them, for the method shown. For some assays here: Binding seen in cells or lysates may run through a third protein. Some binding calls cover weakened binding; strength is not graded here. For some assays here: Tags and fused reporters may be left off the sequences shown.

Protein sequences, listed by entry. Tags and fused reporters are not part of them.
UniProt Q13547: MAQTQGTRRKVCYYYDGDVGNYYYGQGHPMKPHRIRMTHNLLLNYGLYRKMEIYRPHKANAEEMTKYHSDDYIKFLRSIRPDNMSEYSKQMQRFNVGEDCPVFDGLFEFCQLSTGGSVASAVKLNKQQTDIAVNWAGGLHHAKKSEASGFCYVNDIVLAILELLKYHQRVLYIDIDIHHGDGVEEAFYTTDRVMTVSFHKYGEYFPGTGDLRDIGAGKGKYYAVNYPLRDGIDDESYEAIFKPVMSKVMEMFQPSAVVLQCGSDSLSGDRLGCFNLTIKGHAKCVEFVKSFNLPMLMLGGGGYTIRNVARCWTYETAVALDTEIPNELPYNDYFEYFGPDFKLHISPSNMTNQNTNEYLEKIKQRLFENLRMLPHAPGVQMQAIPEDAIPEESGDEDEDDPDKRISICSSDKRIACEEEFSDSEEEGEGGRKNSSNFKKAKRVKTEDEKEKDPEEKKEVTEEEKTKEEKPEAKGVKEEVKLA
UniProt O15379: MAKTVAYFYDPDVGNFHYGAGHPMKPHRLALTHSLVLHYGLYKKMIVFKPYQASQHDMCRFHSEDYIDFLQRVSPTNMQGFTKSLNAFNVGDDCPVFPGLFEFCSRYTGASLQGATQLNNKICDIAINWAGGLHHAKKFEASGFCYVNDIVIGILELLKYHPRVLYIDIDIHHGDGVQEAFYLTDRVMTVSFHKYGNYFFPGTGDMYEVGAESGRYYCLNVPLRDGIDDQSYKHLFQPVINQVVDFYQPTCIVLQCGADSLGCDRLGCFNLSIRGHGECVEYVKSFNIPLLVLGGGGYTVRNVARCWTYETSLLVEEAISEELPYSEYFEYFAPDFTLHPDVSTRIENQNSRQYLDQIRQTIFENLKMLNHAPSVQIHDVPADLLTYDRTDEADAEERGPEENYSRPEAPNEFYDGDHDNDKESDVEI
UniProt Q92769: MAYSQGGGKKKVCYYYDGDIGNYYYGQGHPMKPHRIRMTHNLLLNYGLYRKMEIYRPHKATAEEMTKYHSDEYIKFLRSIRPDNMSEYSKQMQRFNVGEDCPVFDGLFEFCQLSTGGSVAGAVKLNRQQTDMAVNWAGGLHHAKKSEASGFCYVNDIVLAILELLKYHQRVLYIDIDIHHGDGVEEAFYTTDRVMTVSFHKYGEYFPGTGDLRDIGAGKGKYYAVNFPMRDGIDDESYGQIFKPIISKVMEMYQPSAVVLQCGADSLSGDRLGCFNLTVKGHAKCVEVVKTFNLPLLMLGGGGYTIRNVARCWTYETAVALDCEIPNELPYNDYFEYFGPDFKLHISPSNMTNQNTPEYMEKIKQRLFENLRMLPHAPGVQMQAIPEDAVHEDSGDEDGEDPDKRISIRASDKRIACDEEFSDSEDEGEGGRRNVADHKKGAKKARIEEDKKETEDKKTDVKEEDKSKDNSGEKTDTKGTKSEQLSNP

Assays:
[1] = molecular target: T1, PFKL, endogenous in TFK1 cells (human (endogenous in TFK1)) (UniProt P17858); assay: co-IP; endogenous PFKL and class I HDACs in TFK1 whole-cell lysates and nuclear lysates
T1 sequence: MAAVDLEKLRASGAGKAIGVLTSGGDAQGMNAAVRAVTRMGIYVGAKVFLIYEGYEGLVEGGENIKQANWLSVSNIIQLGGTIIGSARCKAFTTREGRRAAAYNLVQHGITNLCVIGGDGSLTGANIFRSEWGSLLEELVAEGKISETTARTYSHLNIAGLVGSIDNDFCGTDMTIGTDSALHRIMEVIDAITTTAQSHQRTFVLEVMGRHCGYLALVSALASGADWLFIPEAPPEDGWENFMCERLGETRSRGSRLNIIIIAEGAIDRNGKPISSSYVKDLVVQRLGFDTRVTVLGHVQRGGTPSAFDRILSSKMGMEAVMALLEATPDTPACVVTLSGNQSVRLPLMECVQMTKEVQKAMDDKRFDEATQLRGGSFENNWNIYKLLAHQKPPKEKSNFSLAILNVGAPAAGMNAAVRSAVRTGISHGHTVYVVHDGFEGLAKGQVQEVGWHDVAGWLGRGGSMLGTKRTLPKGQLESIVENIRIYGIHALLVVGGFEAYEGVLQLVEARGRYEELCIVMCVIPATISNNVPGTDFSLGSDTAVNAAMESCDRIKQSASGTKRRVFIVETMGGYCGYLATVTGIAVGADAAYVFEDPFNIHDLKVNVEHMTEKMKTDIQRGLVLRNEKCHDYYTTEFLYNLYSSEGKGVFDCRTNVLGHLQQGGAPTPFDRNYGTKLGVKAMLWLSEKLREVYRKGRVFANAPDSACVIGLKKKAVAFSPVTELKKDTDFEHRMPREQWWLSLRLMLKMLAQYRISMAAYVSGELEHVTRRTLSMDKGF

[2] = molecular target: T2, Flag-tagged PFKL (liver-type phosphofructokinase), expressed in TFK1 cells (human) (UniProt P17858); assay: co-IP; Flag-tagged PFKL in TFK1 cells, blots for zinc-dependent HDACs; lysis buffer 150 mM NaCl, 25 mM Tris-HCl, 0.5% NP-40; anti-FLAG-M2 magnetic beads
T2 sequence: T1 sequence

[3] = molecular target: T3, GST-PFKL, recombinant (human) (UniProt P17858); assay: pull-down; GST-PFKL on glutathione beads (1 h, 4 °C), His-HDAC protein added (1.5 h, 4 °C), five washes, glutathione elution; Coomassie staining and immunoblot; both purified
T3 sequence: T1 sequence

Substance | binding [1] | binding [2] | binding [3]
HDAC1, endogenous in TFK1 cells (from UniProt Q13547 1-482) (enzyme) | binds | binds | –
His-HDAC3, recombinant (from UniProt O15379 1-428) (enzyme) | – | – | binds
HDAC2, endogenous in TFK1 cells (from UniProt Q92769 1-488) (enzyme) | binds | binds | –
His-HDAC2, recombinant (from UniProt Q92769 1-488) (enzyme) | – | – | binds
HDAC3, endogenous in TFK1 cells (from UniProt O15379 1-428) (enzyme) | binds | binds | –
